Library screen at single concentrations

By UniProt entry, the sequences of proteins in these tests, tags left out. Residues count along the entry.
UniProt Q4DA54, 1-478: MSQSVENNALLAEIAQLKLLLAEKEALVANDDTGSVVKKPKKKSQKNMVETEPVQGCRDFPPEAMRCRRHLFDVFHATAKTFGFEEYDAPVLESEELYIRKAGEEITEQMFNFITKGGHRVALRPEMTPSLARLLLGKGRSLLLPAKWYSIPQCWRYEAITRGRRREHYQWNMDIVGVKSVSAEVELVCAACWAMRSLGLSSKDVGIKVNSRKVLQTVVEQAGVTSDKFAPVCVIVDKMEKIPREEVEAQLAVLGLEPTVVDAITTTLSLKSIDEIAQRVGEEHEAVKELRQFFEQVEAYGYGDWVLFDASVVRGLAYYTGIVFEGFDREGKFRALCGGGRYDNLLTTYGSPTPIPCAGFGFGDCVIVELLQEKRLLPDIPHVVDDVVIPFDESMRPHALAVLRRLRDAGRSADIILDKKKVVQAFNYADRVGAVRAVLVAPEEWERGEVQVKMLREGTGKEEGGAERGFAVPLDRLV
UniProt A4I591, 1-473: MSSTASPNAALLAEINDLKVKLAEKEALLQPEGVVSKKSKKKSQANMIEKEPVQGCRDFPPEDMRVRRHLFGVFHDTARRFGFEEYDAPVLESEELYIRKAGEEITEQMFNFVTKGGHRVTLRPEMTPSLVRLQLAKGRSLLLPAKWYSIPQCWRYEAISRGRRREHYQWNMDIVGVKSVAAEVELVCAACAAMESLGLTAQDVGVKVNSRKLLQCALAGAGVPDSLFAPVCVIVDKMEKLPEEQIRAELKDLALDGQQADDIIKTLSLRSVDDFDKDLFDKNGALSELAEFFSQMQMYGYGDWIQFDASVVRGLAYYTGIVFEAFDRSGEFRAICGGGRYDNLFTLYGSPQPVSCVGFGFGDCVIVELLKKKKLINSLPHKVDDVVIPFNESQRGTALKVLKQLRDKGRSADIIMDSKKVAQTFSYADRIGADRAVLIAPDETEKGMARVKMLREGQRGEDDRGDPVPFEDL
UniProt Q8IDJ8, 1-583: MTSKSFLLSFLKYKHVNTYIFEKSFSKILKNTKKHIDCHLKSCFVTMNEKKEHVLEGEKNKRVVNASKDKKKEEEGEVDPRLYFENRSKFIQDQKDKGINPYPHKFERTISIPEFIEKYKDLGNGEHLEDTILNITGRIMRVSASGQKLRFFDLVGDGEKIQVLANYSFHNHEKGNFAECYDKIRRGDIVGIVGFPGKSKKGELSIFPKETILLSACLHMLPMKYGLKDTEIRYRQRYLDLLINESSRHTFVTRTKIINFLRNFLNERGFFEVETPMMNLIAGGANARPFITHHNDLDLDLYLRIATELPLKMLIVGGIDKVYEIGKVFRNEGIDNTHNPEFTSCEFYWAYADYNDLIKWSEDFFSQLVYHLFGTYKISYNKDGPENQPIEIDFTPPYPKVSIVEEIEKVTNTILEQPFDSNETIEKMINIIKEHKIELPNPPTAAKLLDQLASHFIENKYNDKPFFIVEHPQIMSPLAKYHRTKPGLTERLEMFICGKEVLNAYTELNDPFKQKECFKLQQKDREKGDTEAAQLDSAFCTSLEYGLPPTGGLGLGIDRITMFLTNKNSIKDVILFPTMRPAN

A: 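Enzyme assay of histidyl-tRNA synthetase; the read-out is not stated. Target: Histidine-tRNA ligase, Trypanosoma cruzi CL Brener (UniProt Q4DA54). Concentration: 30 µM. Higher reads as stronger inhibition (inferred: compounds with an IC50 in retests scored well above the rest). Size under these conditions: about 69,000 compounds, about 31 of them at 50% or above in at least one test.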
B: 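Enzyme assay of histidyl-tRNA synthetase; the read-out is not stated. Target: Histidine-tRNA ligase, Leishmania infantum (UniProt A4I591). Tested at 30 µM. Direction is inferred from retests: higher values go with stronger inhibition. The assay is labelled LdHisRS but filed under L. infantum. About 69,000 compounds were tested under these conditions; 0.6% (about 410) showed 50% or more at least once.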
C: 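Enzyme assay of the cytosolic lysyl-tRNA synthetase in 384-well plates, read by luminescence. Target: Lysine-tRNA ligase, Plasmodium falciparum 3D7 (UniProt Q8IDJ8). Tested at 30 µM. Direction is inferred from only a few compounds that gave an IC50; most scored high, so higher reads as stronger inhibition. Size under these conditions: about 69,000 compounds, about 49 of them at 50% or above in at least one test.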

Values are the deposited “Percent Effect”, in %. The controls that fix the scale are not given in the record; negative values are as filed. The compounds are a random part of those screened.

| structure | A | B | C |
|---|---|---|---|
| `CS(=O)(=O)NC(c1ccccc1)c1ccc2c(c1)CCCO2` (stereo not shown) | -12.5% | 16.67% | 1.279% |
| `Clc1ccc(OCCc2cc(C3CCN(c4ncccn4)C3)n[nH]2)cc1` (stereo not shown) | 13.64% | 7.042% | 0.8349% |
| `Cc1nc(CC2CCN(Cc3ccc(CCC(C)(C)O)cc3)CC2)no1` | 2.155% | 13.92% | 1.377% |
| `COCCOCCNC(=O)c1cccc(Cn2nc(C)cc2C)c1` | 1.339% | 3.704% | -1.391% |
| `COc1cccc(CNCC2CCN(CC(C)O)CC2)c1OC` (stereo not shown) | 2.353% | -1.835% | 0.9873% |
| `Cc1nnc(CN(Cc2ccccc2C(F)(F)F)C2CC2)o1` | 0% | 7.937% | 3.435% |
| `C1CC(c2noc(C3CC3)n2)CN(CCOCC2CC2)C1` (stereo not shown) | 4.124% | 9.677% | 9.746% |
| `O=C(NC1CC1)C1CCN(c2nc3nc[nH]c(=O)c3s2)CC1` | 8.911% | 21.74% | 2.83% |
| `Cc1nc(C)n(CC2CN(c3ccc(C#N)cn3)CCO2)n1` (stereo not shown) | -2.273% | 22.73% | 4.476% |
| `Cc1cccc2[nH]c(C3CCN(C(=O)c4ccnn4C)CC3)nc12` | 6.695% | 8.491% | -1.795% |
| `Cc1cnccc1CN1CC[C@@](C)(O)[C@H](Oc2ccccc2)C1` | 5.946% | 19.44% | 0.3674% |
| `COc1ccccc1S(=O)(=O)Nc1ccc2c(C(=O)O)c[nH]c2c1` | 1.527% | 32.88% | 2.4% |
| `OCC(O)CSCc1ccc(Cl)cc1Cl` (stereo not shown) | 8.387% | -1.01% | 5.01% |
| `CCS(=O)(=O)N1CCC2(CC1)CN(CC1CCOC1)c1ccccc12` (stereo not shown) | 10.58% | 33.64% | -0.6105% |
| `CCN1CCN(C(=O)CCn2cccc2)CC1` | 4.878% | 26.32% | 8.017% |
| `Cc1cc2nc(SCC(=O)N3CCCCC3)n(C)c(=O)c2[nH]1` | -2.439% | 10.53% | 3.759% |
| `COc1ccsc1C(=O)N1CCCC1c1c(C)nn(C)c1OC` (stereo not shown) | 8.247% | 11.29% | 6.768% |
| `CCOC[C@@H]1CC[C@H]2[C@H](CCN2Cc2c(C)noc2C)O1` | 9.453% | 22.22% | 5.341% |
| `c1ccc2oc(CCCN3CCCCC3Cn3cncn3)nc2c1` (stereo not shown) | 6.977% | 17.86% | 4.855% |
| `Cc1ccsc1CNc1ccc(C(=O)N2CCNC(=O)C2)cn1` | 0.9804% | 21.01% | 5.884% |
| `CN(CCN1CCN(c2ccccc2)CC1)C(=O)Nc1ccncc1` | 3.941% | -4.11% | -1.182% |
| `CC(C)n1nc2c(cc1=O)CN(c1nc3ccccc3s1)CC2` | -5.435% | 18.18% | -2.154% |
| `CCC(=O)N1CCC2(COCc3c(C)nc(NCc4ccco4)nc32)C1` (stereo not shown) | 5.882% | 14.53% | 8.141% |
| `O=S(=O)(Cc1ccccc1)CC(O)Cn1cccn1` (stereo not shown) | 8.511% | -61.43% | 0.3041% |
| `CCn1ccnc1CNCC1CCCN1c1cccnn1` (stereo not shown) | 1.132% | 12.16% | 5.036% |
| `CN(C)CC1CN(Cc2c(Cl)ccc3cccnc23)CCO1` (stereo not shown) | 5.732% | 26.76% | -1.034% |
| `Cc1nc(CN2C(=O)CC[C@@H]3[C@H]2CCN3C(=O)c2ccno2)cs1` | 8.867% | 17.65% | -0.04644% |
| `CCOC(=O)CNC(=O)N1CCCC(CNC(=O)c2ccco2)C1` (stereo not shown) | 1.538% | 12.7% | 3.934% |
| `CC1COCCN1Cc1nc(-c2cccc(Br)c2)no1` (stereo not shown) | 0.7519% | -14.29% | -1.445% |
| `O=S1(=O)CCCN(Cc2ccccc2OCC(F)(F)F)CC1` | 5.263% | 38.36% | 3.629% |
| `Cc1cc(N2CCc3c(nc(C(C)C)n3C)C2)nc(N)n1` | 0% | 28.12% | 1.822% |
| `Cc1ccc(CN2CCC3(CCCN(C(=O)N(C)C)C3)C2)cc1` (stereo not shown) | 6.952% | 17.95% | 6.693% |
| `CC(CN1CCCC1)C(=O)NCC1CCN(c2cnn(C)c(=O)c2)CC1` (stereo not shown) | 2.041% | 9.677% | 2.047% |
| `CC(C)c1nc(O)c2nnn(C[C@@H]3CCCN(Cc4cccs4)C3)c2n1` | 3.077% | 8.451% | 3.211% |
| `c1cnc(Nc2cncc(C3CCCN(c4ncccn4)C3)n2)nc1` (stereo not shown) | -1.111% | -2.062% | 1.487% |
| `Cc1cc(CN2CC[C@H]3[C@H]2CCN3C)oc1C` | 8.738% | 23.3% | 4.13% |
| `CCOCC1CN(c2ncc(F)cn2)Cc2cn(CC)nc21` (stereo not shown) | 4.813% | 5.983% | 0.2308% |
| `CC(C)c1ccc(CN2CCN(C(=O)c3cc(C4CC4)[nH]n3)CC2)cc1` | 1.744% | 0% | 2.935% |
| `CCCNC(=O)C1CCCN(c2ccc3nncn3n2)C1` (stereo not shown) | 4.523% | 0% | -0.9187% |
| `CN1CCOC(CNCc2cnc(C(C)(C)C)s2)C1` (stereo not shown) | 9% | 18.37% | 3.588% |
| `c1cncc(COC[C@@H]2CCC[C@]23CNCCO3)c1` | 10.58% | 17.27% | 3.76% |
| `CCc1ccc(C(COC)NC(=O)c2ccc(F)c(NC(C)=O)c2)o1` (stereo not shown) | -3.509% | -33.63% | -6.053% |
| `COc1ccccc1CN1CCC2(CCC(C(=O)N(C)C)O2)CC1` (stereo not shown) | 5.825% | 17.31% | 2.759% |
| `CC(C)c1nnc(CN(C)C(c2ccccc2)c2ccc(F)cc2)o1` (stereo not shown) | 3.665% | 15.52% | 2.061% |
| `CC(C)OCCCNC(=O)CN1C=Nc2ccccc2S1(=O)=O` | 3.468% | 13.16% | 0.7012% |
| `Fc1cccc(-n2ccc(CN3CCCCC3Cn3cncn3)n2)c1` (stereo not shown) | 3.008% | -1.124% | -2.098% |
| `O=C(NCc1cc[nH]n1)NCC(O)c1ccccc1F` (stereo not shown) | 1.729% | 7.143% | 0.2953% |
| `Cc1ncc(C(=O)N2CCCC(C(=O)CCc3ccccc3)C2)s1` (stereo not shown) | 1.22% | -8.434% | -4.225% |
| `c1cc(NCc2ccncc2)nc(C2CCCNC2)c1` (stereo not shown) | 2.571% | 5.369% | 1.196% |
| `Cc1ccsc1CN1CCC2(CC1)CC(OCc1cccnc1)CO2` (stereo not shown) | 4.301% | 12.28% | -0.04267% |
| `CCN(Cc1ccc2c(c1)OCO2)C(=O)c1ccc(C)[nH]c1=O` | -1.141% | 16.8% | 7.094% |
| `Cc1ccc(CN2CCO[C@H]3[C@H](OCc4cccnc4)CC[C@@H]32)o1` | -5.525% | -13.51% | -1.791% |
| `CCn1cc2c(n1)CN(S(=O)(=O)c1cn(C)cn1)CC2COC` (stereo not shown) | 6.952% | 9.402% | 3.903% |
| `c1cc(-c2nc(CN3CCn4c(nnc4C4CC4)C3)cs2)cs1` | 1.527% | 8.511% | 4.056% |
| `COC(=O)N1CCN(c2ncnc3nc(C)cc(C)c23)CC1` | 15% | 28.57% | 5.079% |
| `CNC(=O)CN(C)C1CCN(c2ccc(Cl)cc2)CC1` | 12.05% | 16% | 1.891% |
| `CCOCC1CN(S(=O)(=O)c2ccccc2)Cc2nccn2C1` (stereo not shown) | -13.57% | 11.88% | -0.1512% |
| `CCc1cnc(N2CCC3(CC2)CCN(c2cnn(C)c2)C3=O)nc1` | 5.063% | 0% | -4.833% |
| `Cc1cn2nc(N(C)C3CCCN(c4cccnn4)C3)sc2n1` (stereo not shown) | 15.18% | 65.49% | 5.093% |
| `C[S+]([O-])c1nncn1CCc1ccccc1` (stereo not shown) | 1.235% | 4.301% | 1.443% |
| `Cc1nc2c(c(=O)n1C)CCN(Cc1cc3cc[nH]c3cn1)CC2` | 1.587% | -5.882% | -4.381% |

Some entries from above, unchanged:

| structure | A | B | C |
|---|---|---|---|
| `CCn1cc2c(n1)CN(S(=O)(=O)c1cn(C)cn1)CC2COC` (stereo not shown) | 6.952% | 9.402% | 3.903% |
| `c1cnc(Nc2cncc(C3CCCN(c4ncccn4)C3)n2)nc1` (stereo not shown) | -1.111% | -2.062% | 1.487% |
| `O=S(=O)(Cc1ccccc1)CC(O)Cn1cccn1` (stereo not shown) | 8.511% | -61.43% | 0.3041% |

Source: ChEMBL document CHEMBL3988442, “University of Dundee, Small-Polar-MMV Screening Library” (2021).